Assay results: patent publication US20160279215A1, “NOVEL PEPTIDES AND COMBINATION OF PEPTIDES FOR USE IN IMMUNOTHERAPY AGAINST VARIOUS TUMORS” (immatics biotechnologies GmbH, priority 2015, published 2016)

assay: Identification and label-free relative LC-MS quantitation of HLA-presented peptides on tumor and normal tissue samples (XPRESIDENT presentation profiles); design: species or system human; conditions: entities where the peptide was over-presented on cancer samples compared to normal tissues

Row | Substance | Entities of particular interest
1 | 95 (KLIDEDEPLFL; listed as Homo sapiens) [compound 95] | NSCLC, OC
2 | 96 (ALDTTRHEL; listed as Homo sapiens) [compound 96] | NSCLC, PC
3 | 97 (KLFEKSTGL; listed as Homo sapiens) [compound 97] | NSCLC, CRC
4 | 98 (FVQEKIPEL; listed as Homo sapiens) [compound 98] | GC, CRC
5 | 100 (ALQSFEFRV; listed as Homo sapiens) [compound 100] | OC, RCC
6 | 101 (SLLEVNEASSV; listed as Homo sapiens) [compound 101] | GC, CLL
7 | 102 (GLYPVTLVGV; listed as Homo sapiens) [compound 102] | BPH, OC
8 | 116 (ALLSSVAEA; listed as Homo sapiens) [compound 116] | NSCLC, OSCAR, OC
9 | 134 (SLYKSFLQL; listed as Homo sapiens) [compound 134] | NSCLC, OSCAR, OC
10 | 137 (KLIYKDLVSV; listed as Homo sapiens) [compound 137] | NSCLC, OC, PC
11 | 146 (VVAAHLAGA; listed as Homo sapiens) [compound 146] | NSCLC, OSCAR, OC
12 | 165 (SLLDYEVSI; listed as Homo sapiens) [compound 165] | NSCLC, OSCAR, OC
13 | 166 (LLGDSSFFL; listed as Homo sapiens) [compound 166] | NSCLC, HCC, OSCAR, OC, PC
14 | 170 (FIAAVVEKV; listed as Homo sapiens) [compound 170] | NSCLC, OC
15 | 175 (SLLDLVQSL; listed as Homo sapiens) [compound 175] | PC, OC
16 | 176 (VQSGLRILL; listed as Homo sapiens) [compound 176] | NSCLC, OSCAR
17 | 184 (ALDSTIAHL; listed as Homo sapiens) [compound 184] | NSCLC, OC
18 | 191 (AAIEIFEKV; listed as Homo sapiens) [compound 191] | NSCLC, OSCAR, OC

same assay, conditions: tumor entities on which the HLA-presented peptide was found; entity abbreviations defined in the title of Table 4B

Row | Substance | Additional entities of particular interest (presentation of selected peptides across entities)
19 | 95 (KLIDEDEPLFL; listed as Homo sapiens) [compound 95] | SCLC, UTC, GBC_CCC
20 | 96 (ALDTTRHEL; listed as Homo sapiens) [compound 96] | OSCAR, UBC, UTC
21 | 98 (FVQEKIPEL; listed as Homo sapiens) [compound 98] | GBC_CCC
22 | 99 (TLFGIQLTEA; listed as Homo sapiens) [compound 99] | GC, GBC_CCC
23 | 101 (SLLEVNEASSV; listed as Homo sapiens) [compound 101] | NHL
24 | 102 (GLYPVTLVGV; listed as Homo sapiens) [compound 102] | SCLC, BRCA, AML
25 | 103 (YLADTVQKL; listed as Homo sapiens) [compound 103] | NSCLC
26 | 106 (VLLGSVVIFA; listed as Homo sapiens) [compound 106] | BPH
27 | 108 (FIANLPPELKA; listed as Homo sapiens) [compound 108] | BPH
28 | 109 (ILGSFELQL; listed as Homo sapiens) [compound 109] | BPH
29 | 110 (QIQGQVSEV; listed as Homo sapiens) [compound 110] | BPH
30 | 113 (FLFLKEVKV; listed as Homo sapiens) [compound 113] | CRC
31 | 116 (ALLSSVAEA; listed as Homo sapiens) [compound 116] | SCLC, BRCA, CRC
32 | 118 (IAYNPNGNAL; listed as Homo sapiens) [compound 118] | NSCLC, CLL, AML
33 | 119 (SLIEESEEL; listed as Homo sapiens) [compound 119] | OC, UTC
34 | 124 (ALLLRLFTI; listed as Homo sapiens) [compound 124] | NSCLC
35 | 128 (SILTNISEV; listed as Homo sapiens) [compound 128] | NSCLC
36 | 129 (KMASKVTQV; listed as Homo sapiens) [compound 129] | HCC
37 | 130 (QLYGSAITL; listed as Homo sapiens) [compound 130] | HCC
38 | 132 (ALLNNVIEV; listed as Homo sapiens) [compound 132] | HCC, BRCA

Row | Substance | Additional entities of particular interest (presentation of selected peptides across entities)
39 | 133 (FLDGRPLTL; listed as Homo sapiens) [compound 133] | UTC, MEL
40 | 136 (LLWDAPAKC; listed as Homo sapiens) [compound 136] | CRC
41 | 139 (IILENIQSL; listed as Homo sapiens) [compound 139] | UBC, BRCA, AML
42 | 140 (FLDSQITTV; listed as Homo sapiens) [compound 140] | MEL
43 | 142 (LLDAAHASI; listed as Homo sapiens) [compound 142] | NSCLC
44 | 143 (MLWESIMRV; listed as Homo sapiens) [compound 143] | NSCLC, UTC
45 | 144 (FLISQTPLL; listed as Homo sapiens) [compound 144] | NSCLC, SCLC, UBC
46 | 145 (ALEEKLENV; listed as Homo sapiens) [compound 145] | NSCLC
47 | 146 (VVAAHLAGA; listed as Homo sapiens) [compound 146] | GC, MEL
48 | 150 (VLLDMVHSL; listed as Homo sapiens) [compound 150] | HCC, UTC
49 | 151 (DISKRIQSL; listed as Homo sapiens) [compound 151] | NSCLC
50 | 153 (KLVELEHTL; listed as Homo sapiens) [compound 153] | GC, NSCLC, OSCAR
51 | 154 (AIIKEIQTV; listed as Homo sapiens) [compound 154] | GB, NSCLC, HCC, UBC, MEL
52 | 159 (QLGPVPVTI; listed as Homo sapiens) [compound 159] | UBC, RCC, NHL
53 | 160 (TLQEWLTEV; listed as Homo sapiens) [compound 160] | NSCLC, GBC_CCC
54 | 161 (NLLDENVCL; listed as Homo sapiens) [compound 161] | CRC
55 | 162 (GLLGNLLTSL; listed as Homo sapiens) [compound 162] | NSCLC
56 | 163 (GLEERLYTA; listed as Homo sapiens) [compound 163] | NSCLC, CLL, AML, NHL
57 | 164 (MLIIRVPSV; listed as Homo sapiens) [compound 164] | NSCLC
58 | 165 (SLLDYEVSI; listed as Homo sapiens) [compound 165] | GBC_CCC

Row | Substance | Additional entities of particular interest (presentation of selected peptides across entities)
59 | 166 (LLGDSSFFL; listed as Homo sapiens) [compound 166] | CLL, UBC, UTC, BRCA, GBC_CCC, MEL, AML
60 | 167 (LVVDEGSLVSV; listed as Homo sapiens) [compound 167] | OC, SCLC
61 | 168 (VIFEGEPMYL; listed as Homo sapiens) [compound 168] | NSCLC, BRCA, NHL
62 | 170 (FIAAVVEKV; listed as Homo sapiens) [compound 170] | SCLC, NHL
63 | 171 (LLLLDVPTA; listed as Homo sapiens) [compound 171] | NSCLC, UTC, BRCA, CRC, NHL
64 | 172 (SLYLQMNSLRTE; listed as Homo sapiens) [compound 172] | NSCLC
65 | 174 (ALYSGDLHAA; listed as Homo sapiens) [compound 174] | HCC
66 | 175 (SLLDLVQSL; listed as Homo sapiens) [compound 175] | BRCA, AML, NHL
67 | 177 (ALINVLNAL; listed as Homo sapiens) [compound 177] | AML
68 | 179 (TLGEIIKGV; listed as Homo sapiens) [compound 179] | NSCLC
69 | 180 (RLYEEEIRI; listed as Homo sapiens) [compound 180] | NSCLC
70 | 181 (LLWAPTAQA; listed as Homo sapiens) [compound 181] | GB, NSCLC, RCC, CRC
71 | 183 (ALSYILPYL; listed as Homo sapiens) [compound 183] | NSCLC, SCLC, UTC, BRCA, CRC, AML, NHL
72 | 184 (ALDSTIAHL; listed as Homo sapiens) [compound 184] | UTC, MEL
73 | 185 (TLYQGLPAEV; listed as Homo sapiens) [compound 185] | GC, NSCLC, HCC, OSCAR, OC, UBC, UTC, BRCA, RCC, CRC
74 | 187 (SILKEDPFL; listed as Homo sapiens) [compound 187] | NSCLC
75 | 188 (VLGEEQEGV; listed as Homo sapiens) [compound 188] | NSCLC
76 | 190 (SLSTELFKV; listed as Homo sapiens) [compound 190] | HCC
